# Test results as given in PubChem BioAssay AID743255 (National Center for Advancing Translational Sciences (NCATS), 2014).
# By UniProt entry, the sequences of proteins in these tests, tags left out. Where a name states a change or a piece, a line headed by the entry shows the natural chain unless it says otherwise.
# UniProt O94782: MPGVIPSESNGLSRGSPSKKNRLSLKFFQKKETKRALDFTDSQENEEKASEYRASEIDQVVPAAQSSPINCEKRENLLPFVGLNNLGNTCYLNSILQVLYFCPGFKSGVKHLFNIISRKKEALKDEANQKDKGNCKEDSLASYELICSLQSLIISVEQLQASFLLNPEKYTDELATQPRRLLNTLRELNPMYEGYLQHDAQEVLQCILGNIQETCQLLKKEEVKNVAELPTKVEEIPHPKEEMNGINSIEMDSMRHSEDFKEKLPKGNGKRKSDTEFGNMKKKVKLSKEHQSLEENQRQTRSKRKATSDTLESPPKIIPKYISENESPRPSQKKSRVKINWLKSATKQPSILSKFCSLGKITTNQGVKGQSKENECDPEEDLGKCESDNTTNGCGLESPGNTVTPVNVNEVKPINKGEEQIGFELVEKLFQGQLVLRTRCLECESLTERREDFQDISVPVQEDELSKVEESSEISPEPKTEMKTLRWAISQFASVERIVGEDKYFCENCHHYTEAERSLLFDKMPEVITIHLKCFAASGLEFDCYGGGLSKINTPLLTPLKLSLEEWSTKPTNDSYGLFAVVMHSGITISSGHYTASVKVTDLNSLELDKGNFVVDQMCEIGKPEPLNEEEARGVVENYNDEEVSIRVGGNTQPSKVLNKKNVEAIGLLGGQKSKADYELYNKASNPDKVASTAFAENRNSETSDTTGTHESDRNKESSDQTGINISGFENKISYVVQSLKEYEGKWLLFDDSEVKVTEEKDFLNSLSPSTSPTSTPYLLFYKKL
# Screen size: about 390,000 compounds; about 910 (0.23%) were called active. This list was built around the results that the source calls inconclusive (neither active nor inactive); the mix of calls is not that of the screen. Calls follow the shape of the dose curve; as a rule, active = well fitted inhibition curve with a large enough effect; inconclusive = small, poorly fitted or top-dose-only effect; inactive = no such curve, though single readings can be large or run the other way. A potency beside an inconclusive call is a rough fit, not a confirmed value.
# Biological target: Ubiquitin carboxyl-terminal hydrolase 1 (Homo sapiens) (UniProt O94782)
# Assay: Inhibitors of USP1/UAF1: Primary Screen; also: nearly all actives have a fitted effect of over 60% in size
# Details: recombinant USP1/UAF1, Ub-Rhodamine cleavage fluorescence; activity change, negative = inhibition: at 57.1 µM (top of the series)
# Procedure, shortened: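 USP1/UAF1 complex (1 nM) preincubated 15 min at room temperature with compound, then Ub-Rho substrate (150 nM final) added. Kinetic fluorescence at 480/540 nm over 6 reads at 60 s intervals; 50 mM HEPES pH 7.8, 0.5 mM EDTA, 0.1 mg/ml BSA, 1 mM TCEP, 0.01% Tween-20.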
# % is scaled to controls: 0 for no effect and ±100 for the full control effect; potency is read from the fitted curve at half-maximal effect.
Compound,Potency,"activity change, negative = inhibition"
CCN(C[C@H]1N[C@@](CC)(C(=O)OC)[C@H]2C(=O)N(Cc3ccccc3)C(=O)[C@@H]12)S(=O)(=O)c1ccc(C)cc1,"inconclusive: 100 µM [inhibitor, partial curve, poor fit]",
CC(=O)O[C@H]1[C@H]2O[C@]23[C@@H]2CC[C@]4(O)C[C@@H](O)CC[C@]4(C)C2CC[C@]3(C)[C@H]1c1ccc(=O)oc1 (some centres not stated),,inactive: 17.3%
COc1ccc2[nH]c3c(c2c1)CCN1C(=O)C(CC(=O)NCc2cccc(C(F)(F)F)c2)C[C@H](C(=O)N2CCCCC2)[C@@]31C (some centres not stated),"inconclusive: 44.7 µM [inhibitor, partial curve, poor fit]",
Cc1cc(/C=C2\C(=O)NC(=S)N(C)C2=O)c(C)n1C1CCCCC1,,inactive: -9.54%
Oc1ccccc1-[n+]1c(-c2ccccc2)cc(-c2ccccc2)c(O)c1-c1ccccc1,"inconclusive: 50.1 µM [inhibitor, partial curve, poor fit]",
Cc1ccc(C)c(N2CCN(c3nc4ccc(Cl)cc4n4cnnc34)CC2)c1,"inconclusive: 0.631 µM [inhibitor, full curve, poor fit]",
Cc1ccc(N)c(N)c1,"inconclusive: 5.01 µM [inhibitor, partial curve]",
Cc1cccc(-n2c(O)c(/C=C3/C(c4ccccc4)=Nc4ccccc43)c(=O)[nH]c2=O)c1,"inconclusive: 44.7 µM [inhibitor, partial curve, poor fit]",
Cc1ccc(OC(=O)N(C)C[C@@H]2OCc3cnnn3CCCC(=O)N([C@@H](C)CO)C[C@@H]2C)cc1,"inconclusive: 0.282 µM [inhibitor, full curve, poor fit]",
COc1ccc(-n2c(/C=C/c3ccc(O)cc3)nc3ccccc3c2=O)cc1,,inactive: -19%
COc1cc2c(cc1O)C[C@H]1NCCc3cc4c(c-2c31)OCO4,"inconclusive: 7.08 µM [inhibitor, full curve]",
CCOc1cc(/C=C2\C(=O)NC(=O)N(CCc3ccc(F)cc3)C2=O)ccc1O,,inactive: -16.6%
CCCCc1nc2ccccc2c(=O)n1-c1cccc(OC)c1,"inconclusive: 0.794 µM [inhibitor, full curve, poor fit]",
Cc1ccc(C(=O)COC(=O)c2cccc(NC(=O)c3ccc(Br)cc3)c2)cc1,"inconclusive: 7.94 µM [inhibitor, full curve]",
CC(C)CN(CC(C)C)c1ccc(C=C2C(=O)NC(=S)NC2=O)cc1[N+](=O)[O-],"inconclusive: 31.6 µM [inhibitor, partial curve]",
O=C(CN1CCOCC1)c1cccc2ccccc12,"inconclusive: 50.1 µM [inhibitor, partial curve, poor fit]",
N#C/C(=C\c1ccc([N+](=O)[O-])cc1)c1nc(C2CC2)cs1,"inconclusive: 35.5 µM [inhibitor, partial curve, poor fit]",
C[C@]12CCC3C(CC[C@@H]4[C@H]5O[C@H]5CC[C@]34C)C1CC[C@@H]2O (some centres not stated),"inconclusive: 3.16 µM [inhibitor, partial curve]",
O=c1c2ccccc2nc(-c2ccco2)n1-c1nccs1,"inconclusive: 44.7 µM [inhibitor, single point]",
N=C(N)c1c(O)n(C2CCCCC2)c(=O)n(C2CCCCC2)c1=O,,inactive: -15.6%
CCOC(=O)c1cc(CC)sc1/N=C/c1c(O)[nH]c(=S)[nH]c1=O,"inconclusive: 35.5 µM [inhibitor, single point]",

# Nothing new here: entries from further up.
Compound,Potency,"activity change, negative = inhibition"
Cc1ccc(OC(=O)N(C)C[C@@H]2OCc3cnnn3CCCC(=O)N([C@@H](C)CO)C[C@@H]2C)cc1,"inconclusive: 0.282 µM [inhibitor, full curve, poor fit]",
COc1ccc(-n2c(/C=C/c3ccc(O)cc3)nc3ccccc3c2=O)cc1,,inactive: -19%
COc1cc2c(cc1O)C[C@H]1NCCc3cc4c(c-2c31)OCO4,"inconclusive: 7.08 µM [inhibitor, full curve]",
CCOc1cc(/C=C2\C(=O)NC(=O)N(CCc3ccc(F)cc3)C2=O)ccc1O,,inactive: -16.6%

# (cont.)

Compound,Potency,"activity change, negative = inhibition"
C=CC[C@@H](CC/C=C/C=C/CC/C=C\[C@@H]1CSC([C@@H]2C[C@@H]2C)=N1)OC,"inconclusive: 44.7 µM [inhibitor, single point]",
CN1C(=O)NC(=O)/C(=C/c2ccc(C(=O)O)cc2)C1=O,,inactive: -21.1%
Nc1c(C(=O)Nc2ccc(OC(F)(F)F)cc2)sc2nc3c(cc12)N1CCC3CC1,"inconclusive: 25.1 µM [inhibitor, partial curve]",
O=[N+]([O-])c1ccc(N2CCCC(C(F)(F)F)C2)c2ccncc12 (configuration not stated),"inconclusive: 28.2 µM [inhibitor, partial curve]",
CCOc1ccccc1-n1c(O)c(C=Nc2ccc(N(CC)CC)cc2)c(=O)[nH]c1=O,"inconclusive: 35.5 µM [inhibitor, single point]",
COc1ccc(NC(=O)c2oc3ccc(S(=O)(=O)N(C)C4CCCCC4)cc3c2C)cc1,"inconclusive: 0.794 µM [inhibitor, full curve, poor fit]",
C[C@]12CCC3C(CC[C@H]4C[C@@H](O)CC[C@]34C)C1CC[C@@H]2OC(=O)[C@H](N)CCCCN (some centres not stated),,inactive: 0.437%
C=Cn1ccnc1P(=S)(c1nccn1C=C)C1CCCCC1,"inconclusive: 31.6 µM [inhibitor, single point]",
Cc1ccc2nc(Cl)c(-c3ccccc3)cc2c1,"inconclusive: 0.316 µM [inhibitor, full curve, poor fit]",
O=C(Nc1ccc(F)cc1)Oc1ccc[nH]c1=O,"inconclusive: 44.7 µM [inhibitor, partial curve, poor fit]",
COCCO[C@H]1CC[C@@]2(C)C(=CCC3C2CC[C@@]2(C)C3CC[C@]2(C)O)C1 (some centres not stated),"inconclusive: 6.31 µM [inhibitor, full curve, poor fit]",
CN1C(=O)C(=Cc2ccccc2Oc2ccc(Cl)c(F)c2)C(=O)N(C)C1=O,"inconclusive: 12.6 µM [inhibitor, partial curve]",
C=C[C@@H]1C2=CCOC(=O)C2=CO[C@H]1O[C@@H]1O[C@H](CO)[C@@H](O)[C@H](O)[C@H]1O,"inconclusive: 50.1 µM [inhibitor, partial curve, poor fit]",
COC(=O)C1=C(c2ccc(F)cc2OCc2ccccc2)C[C@@H]2CC[C@H]1N2C(=O)NCc1ccccc1OC,"inconclusive: 44.7 µM [inhibitor, partial curve, poor fit]",
COc1ccccc1N=Nc1c(O)[nH]c(=S)[nH]c1=O,"inconclusive: 25.1 µM [inhibitor, partial curve]",
C[C@]12CCC3C(CC[C@H]4C[C@H](O)CC[C@]34C)C1C[C@H](O)[C@H]2O (some centres not stated),"inconclusive: 7.08 µM [inhibitor, single point]",
O=P(Nc1ccccc1)(Nc1ccccc1)Oc1ccccc1,"inconclusive: 5.62 µM [inhibitor, partial curve, poor fit]",
Cn1cccc1/C=C1\C(=O)NC(=O)N(Cc2ccco2)C1=O,,inactive: -16.2%
CCOc1ccc(-n2c(/C=C/c3ccccc3)nc3ccccc3c2=O)cc1,,inactive: -30.7%
O=c1[nH]c(O)c(/C=C2\C=NN=C2c2ccccc2)c(=O)[nH]1,,inactive: -10.7%
O=C(OCC(=O)c1ccc([N+](=O)[O-])cc1)/C(=C/c1ccc(Cl)cc1)NC(=O)c1ccccc1,,inactive: -21.6%

Compound,Potency,"activity change, negative = inhibition"
Cc1cc(C)cc(NC(=O)Cn2c(=O)oc3cc(S(=O)(=O)N4CC(C)CC(C)C4)ccc32)c1 (configuration not stated),"inconclusive: 35.5 µM [inhibitor, partial curve]",
C[N+](C)(C)CCOC(=O)CBr,"inconclusive: 10 µM [inhibitor, single point]",
COC(=O)C1C(C(=O)O)C2(Cl)C(Cl)=C(Cl)C1(Cl)C2(Cl)Cl (configuration not stated),"inconclusive: 7.08 µM [inhibitor, single point]",
COc1ccc(N2C(=O)NC(=O)/C(=C\c3cn(C)c4ccccc34)C2=O)cc1,"inconclusive: 31.6 µM [inhibitor, partial curve, poor fit]",
CCCCCCN1CCN(c2ccccc2Cl)CC1,,inactive: 1.17%
COC(=O)C1=C(c2ccccc2OCc2ccccc2)C[C@@H]2CC[C@H]1N2C(=O)NCc1ccc(OC)cc1,"inconclusive: 89.1 µM [inhibitor, partial curve, poor fit]",
O=C(Nc1ccc(F)cc1)c1c(O)c2c(n(Cc3ccccc3)c1=O)CCCC2,,inactive: -5.27%
COCCN1C(=O)/C(=C/c2c(OC)cc(OC)cc2OC)C(=O)N(c2ccccc2)C1=O,,inactive: -17.5%
COc1ccc(CCNCc2ccc3c(c2)n(C)c(=O)n3C)cc1,,inactive: 13.1%
COc1cc2c(cc1O)[C@@H]1Cc3ccc(OC)c(O)c3CN1CC2,active: 14.1 µM,
CCOc1ccc(NC(=O)c2cccn(Cc3cccc(Cl)c3)c2=O)cc1,"inconclusive: 5.62 µM [inhibitor, single point]",
Cc1cccc(C)c1NC(=O)CN1CCCC1,"inconclusive: 7.94 µM [inhibitor, full curve, poor fit]",
O=c1[nH]c(O)c(N=Nc2cc([N+](=O)[O-])ccc2O)c(=O)[nH]1,"inconclusive: 11.2 µM [inhibitor, partial curve, poor fit]",
CN1C(=O)C(=Cc2ccc(N3CCCCCC3)o2)C(=O)N(C)C1=S,active: 25.1 µM,
COc1ccc(CNC(=O)CCC(=O)N2C[C@H]3C[C@H](C2)c2cccc(=O)n2C3)cc1OC,,inactive: -26.1%
COc1ccc(CCn2c(O)c(C=Nc3ccccc3F)c(=O)[nH]c2=O)cc1OC,"inconclusive: 50.1 µM [inhibitor, partial curve, poor fit]",
O=C1CC(N2CC=C(c3ccccc3)CC2)C(=O)N1c1ccc(F)cc1 (configuration not stated),,inactive: -15.1%
CC[C@H](C)/C=C(C)/C=C/C1=CC2=C(Cl)C(=O)[C@@](C)(OC(C)=O)C(=O)C2=CO1,active: 31.6 µM,
COC(=O)C1=C(c2ccc(OC(F)(F)F)cc2)C[C@@H]2CC[C@H]1N2C(=O)NCCO,"inconclusive: 0.126 µM [inhibitor, full curve, poor fit]",
Cc1c(Cl)cccc1N1C(=O)NC(=O)/C(=C\c2cc(C)n(-c3cccc(C(=O)O)c3C)c2C)C1=O,,inactive: 4.57%
